Assay results reported in US20260102503A1, “NANOCOMPOSITES FOR ENHANCED CELLULAR PAYLOAD DELIVERY” (priority 2022, published 2026).
At least one compound was matched to its structure with a doubt left.

System: SARS-CoV-2
Experiment: RT-qPCR viral load (nCoV-N1/β-actin)
Type: cell-based
Conditions: after 48 hours

**Q.** How did the viral reduction/inhibition turn out when `CCC(CC)COC(=O)[C@H](C)N[P@](=O)(OC[C@H]1O[C@@](C#N)(c2ccc3c(N)ncnn23)[C@H](O)[C@@H]1O)Oc1ccccc1` [remdesivir] was run?
**A.** did not show any significant effect in viral reduction
